In article PMC11187563 (RSC Medicinal Chemistry, 2024):

Assay: general procedure: peptide synthesis; CTC-resin; HATU/HOBt/DIPEA
Conditions: late stage modification step, TFA salt

FY-Suc-TFP gave a step yield of 90%.
